Results deposited as PubChem BioAssay AID1224828 (NIAID, 2016)
Test: 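Find genes required for NF-kappaB p65 moving into the nucleus after LPS in mouse macrophages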 (primary screen). Cells: mouse RAW264.7 G9 macrophage reporter cells (GFP-p65, Tnf promoter-mCherry). Knock-down reagent: siRNA pool against mouse genes, 100 nM. Duration: 2 days siRNA transfection, then 40 min LPS before fixation. Conditions: LPS (Salmonella minnesota R595) at 10 ng/ml. Measured: 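Imaged p65 nuclear translocation ratio, normalised to the plate median, converted to robust z-scores and averaged across two replicates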. Reading the numbers: p65 translocation robust z-score: higher = more nuclear NF-kappaB p65 after LPS than the plate median; nuclear/cytoplasmic p65 ratio: higher = more nuclear NF-kappaB p65. Hit rule: 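Called active when z exceeds 3.3 or falls under -1.56 (median of Tlr4 controls), giving activity score of at least 50; no calls for control wells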. Calls: active = hit (p65 shift raised or lowered); inactive = no clear change.
The deposit covers about 17,000 reagents; shown is a random part of them. Of all reagents, 762 (4.5%) got an active call. 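Active calls include both raised and lowered p65 entry, mostly lowered; wells with fewer than 50 cells lack a z-score.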 Raw values vary from plate to plate and are shown uncorrected. Unmarked entries are inactive.

| gene symbol | PubChem SID | p65 translocation robust z-score | nuclear/cytoplasmic p65 ratio, rep 1 | nuclear/cytoplasmic p65 ratio, rep 2 | low cell count flag |
| --- | --- | --- | --- | --- | --- |
| Gata5 | SID315466840 | -1.68 (active) | 1.21 | 1.18 | enough cells to score |
| Armc5 | SID315479128 | -0.57 | 1.37 | 1.88 | enough cells to score |
| Vmn1r93 | SID315481923 | – | 1.29 | 1.13 | fewer than 50 cells per well; well left out of scoring |
| Csnk1a1 | SID315475922 | 0.56 | 1.76 | 1.47 | enough cells to score |
| Hars1 | SID315467144 | 0.07 | 1.7 | 1.51 | enough cells to score |
| Ccdc174 | SID315478972 | 1.52 | 1.63 | 1.74 | enough cells to score |
| Zcchc9 | SID315473720 | – | 1.62 | 1.23 | fewer than 50 cells per well; well left out of scoring |
| Cep164 | SID315477868 | -0.72 | 1.41 | 1.72 | enough cells to score |
| Cep164 | SID315477869 | -0.14 | 1.51 | 1.81 | enough cells to score |
| Gdf1 | SID315466868 | -2.04 (active) | 1.29 | 1.18 | enough cells to score |
| Coro7 | SID315475635 | 1.61 | 1.72 | 1.71 | enough cells to score |
| Tbc1d16 | SID315477487 | -0.42 | 1.45 | 1.85 | enough cells to score |
| Pcdhb9 | SID315475992 | 0.48 | 1.36 | 1.3 | enough cells to score |
| Nr1d2 | SID315481705 | -0.5 | 1.36 | 1.37 | enough cells to score |
| Serpinb9c | SID315469409 | – | 1.41 | 1.21 | fewer than 50 cells per well; well left out of scoring |
| Or7g30 | SID315480192 | -0.07 | 1.43 | 1.36 | enough cells to score |
| Arpp19 | SID315471977 | 1.36 | 1.9 | 1.75 | enough cells to score |
| Lgi4 | SID315479721 | -0.63 | 1.65 | 1.43 | enough cells to score |
| Krtap4-7 | SID315475312 | 1.28 | 1.39 | 1.59 | enough cells to score |
| Ciz1 | SID315473519 | -1.35 | 1.27 | 1.21 | enough cells to score |
| Mlf2 | SID315470757 | -0.38 | 1.34 | 1.34 | enough cells to score |
| Srebf2 | SID315469461 | -0.29 | 1.41 | 1.61 | enough cells to score |
| Gm10101 | SID315481478 | – | 1.29 | 1.75 | fewer than 50 cells per well; well left out of scoring |
| Rwdd4a | SID315477390 | 0.84 | 1.72 | 1.96 | enough cells to score |
